Measurements as given in patent publication US20140378536A1 (VALTED, published 2014).

Target: T1, MYC-tagged parkin, wild type, full-length (pRK5-MYC) (UniProt O60260 1-465)
T1 construct: Full-length construct; The truncation limit 220-465 fits the 465-residue human protein; also called MYC-Parkin; WT Parkin; not shown: MYC tag of vector pRK5-MYC
Experiment: co-immunoprecipitation of FLAG-tagged PARIS deletion fragments with full-length parkin (FIG. 18)
Protocol: For co-immunoprecipitation from cell cultures, SH-SY5Y cells were transfected with 2 μg of each plasmid, unless otherwise indicated.

B1: FLAG-tagged PARIS truncation, N-terminal domain of PARIS (other)
chain: MAEAVAAPISPWTMAATIQAMERKIESQAARLLSLEGRTGMAEKKLADCEKTAVEFGNQLEGKWAVLGTLLQEYGLLQRRLENVENLLRNRNFWILRLPPGSKGESPKEWGKLEDWQKELYKHVMRGNYETLVSLDYAISKPEVLSQIEQGKEPCNWRRPGPKIPDVPVDPSPGSGPPVPAPDLLMQIKQEGELQLQEQQALGVEAWAAGQPDIGEEPWGLSQLDSGAGDISTDATSGVHSNFSTTIPPTSWQTDLPPHHPSSACSDGTLKLNTAASTEDVKIVIKTEVQEEEVVATPVHPTDLEAHGTLFGPGQATRFFPS
notes: Two N-terminal truncations were made (1-322 and 1-164); not shown: N-terminal FLAG tag of vector pCMV-Tag2A
  binding result: no binding
